{"source": "patent US20220241228A1", "about": "“Treatment of cholangiopathies” (CymaBay Therapeutics, Inc., priority 2021, published 2022)", "origin": "cited, not measured here", "system": "PBC patients", "conditions": "cited from earlier work", "note": "For at least one compound, name, drawing or mass did not settle the structure."}
{"smiles": "C[C@H](CCC(=O)O)[C@H]1CC[C@H]2[C@@H]3[C@@H](O)C[C@@H]4C[C@H](O)CC[C@]4(C)[C@H]3CC[C@]12C", "note": "[UDCA, ursodeoxycholic acid]", "values": [{"measurement": "patients reported to have an inadequate response", "value": "about 40%"}]}
{"smiles": "CC[C@H]1[C@@H](O)[C@@H]2[C@H](CC[C@]3(C)[C@@H]([C@H](C)CCC(=O)O)CC[C@@H]23)[C@@]2(C)CC[C@@H](O)C[C@@H]12", "note": "[OCA, 6α-ethylchenodeoxycholic acid]", "values": [{"measurement": "patients reported to have an inadequate response", "value": "about 50%"}]}
